Measurements reported in PubChem BioAssay AID1259405 (NCATS, 2018).

- Aim: 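Silenced genes that increase secreted GFP made by CHO cells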 (primary screen)
- Cell system: Chinese hamster CHO-K1 ovary cells with stable secreted eGFP expression
- Reagent: single siRNA against mouse genes, 0.8 pmol siRNA per well (2 µl of 400 nM stock)
- Duration: 3 days
- Read-out: 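Per-well intracellular GFP measured by laser scanning cytometry, plus viability from ATP luminescence, each relative to plate median of non-targeting control wells, in %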
- Scale: GFP, % of control: higher = more GFP per well, higher productivity; viability (ATP), % of control: higher = more viable cells (more ATP)
- Hit rule: 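Called active when intracellular GFP, relative to negative control, is at or above 120%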
The deposit covers about 50,000 reagents; shown is an unselected part. In the full data, about 4,000 (8%) were called active. 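Mouse siRNA library applied to hamster cells; one well for each siRNA.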 Entries without a mark were called inactive. The numbers tell different reagents against one gene apart.

Ttc22 #1 scored GFP, % of control 74.7; viability (ATP), % of control 68.4.
With knock-down of Ttc22 #2 the results were GFP, % of control 106; viability (ATP), % of control 64.6.
After knock-down of Ttc22 #3 the results were GFP, % of control 85.1; viability (ATP), % of control 52.1.
Silencing of Plxnd1 resulted in: GFP, % of control 62.7; viability (ATP), % of control 73.1.
Against Metap1d #1, the entry reads GFP, % of control 160 (active); viability (ATP), % of control 118.
For Metap1d #2, the entry reads GFP, % of control 59.5; viability (ATP), % of control 36.2.
Metap1d #3 showed GFP, % of control 60.3; viability (ATP), % of control 41.8.
Silencing of Zswim9 #1 came out at: GFP, % of control 62.2; viability (ATP), % of control 44.4.
After knock-down of Zswim9 #2, the record shows GFP, % of control 110; viability (ATP), % of control 69.6.
Zswim9 #3 gave GFP, % of control 78.9; viability (ATP), % of control 74.4.
Galnt14 #1 gave GFP, % of control 94.3; viability (ATP), % of control 63.4.
Silencing of Galnt14 #2 gave: GFP, % of control 103; viability (ATP), % of control 155.
Galnt14 #3 gave GFP, % of control 103; viability (ATP), % of control 141.
For Oas2 #1 the deposit lists GFP, % of control 62.6; viability (ATP), % of control 83.1.
Knock-down of Oas2 #2 resulted in: GFP, % of control 65.4; viability (ATP), % of control 67.5.
Knock-down of Oas2 #3 resulted in: GFP, % of control 35.7; viability (ATP), % of control 24.

Look-ups from the entries so far:
Under “GFP, % of control”, Ttc22 #2 shows 106
For “viability (ATP), % of control”, Metap1d #1 reads 118 (active)
Galnt14 #2, viability (ATP), % of control = 155
Metap1d #2, viability (ATP), % of control: 36.2
Under “GFP, % of control”, Oas2 #3 has 35.7
Ttc22 #3, viability (ATP), % of control = 52.1

The list goes on:
Silencing of Dcaf12l1 #1 came out at: GFP, % of control 67.8; viability (ATP), % of control 54.8.
After knock-down of Dcaf12l1 #2, the screen gave GFP, % of control 84.7; viability (ATP), % of control 83.6.
For Dcaf12l1 #3 the deposit lists GFP, % of control 92.6; viability (ATP), % of control 103.
Silencing of Stfa1 #1 gave: GFP, % of control 105; viability (ATP), % of control 107.
Stfa1 #2 showed GFP, % of control 66.8; viability (ATP), % of control 65.7.
For Stfa1 #3, the values are GFP, % of control 114; viability (ATP), % of control 83.6.
Knock-down of Lgals3bp #1 resulted in: GFP, % of control 113; viability (ATP), % of control 102.
Lgals3bp #2 gave GFP, % of control 73.9; viability (ATP), % of control 84.3.
For Lgals3bp #3, the entry reads GFP, % of control 103; viability (ATP), % of control 75.
Acad11 #1 showed GFP, % of control 112; viability (ATP), % of control 107.
Silencing of Acad11 #2 resulted in: GFP, % of control 100; viability (ATP), % of control 97.7.
For Septin10 #1 the deposit lists GFP, % of control 57.3; viability (ATP), % of control 67.3.
For Septin10 #2, the values are GFP, % of control 144 (active); viability (ATP), % of control 112.
Silencing of Acmsd #1 resulted in: GFP, % of control 107; viability (ATP), % of control 142.
With knock-down of Acmsd #2, the screen gave GFP, % of control 65.7; viability (ATP), % of control 64.8.
Agtrap #1 showed GFP, % of control 73.5; viability (ATP), % of control 56.1.
Agtrap #2 showed GFP, % of control 66.2; viability (ATP), % of control 73.
Agtrap #3 showed GFP, % of control 75.8; viability (ATP), % of control 86.
Silencing of Tnfrsf14 #1 resulted in: GFP, % of control 57; viability (ATP), % of control 79.1.
With knock-down of Tnfrsf14 #2 the results were GFP, % of control 25.4; viability (ATP), % of control 25.7.
With knock-down of Tnfrsf14 #3, the record shows GFP, % of control 31.7; viability (ATP), % of control 47.5.
Atp5pb #1 showed GFP, % of control 82.8; viability (ATP), % of control 57.3.
Against Atp5pb #2, the values are GFP, % of control 99; viability (ATP), % of control 51.9.
Silencing of Atp5pb #3 resulted in: GFP, % of control 33.7; viability (ATP), % of control 74.3.
